From publication PMC12040169 (PLOS Biology, 2025)
Some of the results follow.

system: T1, CTL2-GFP (C. trachomatis L2/434/Bu, GFP-expressing); design: species or system HeLa; Intracellular C. trachomatis growth in HeLa cells, bulk GFP fluorescence relative to DMSO; conditions: bulk GFP, single well; 28.5 h, 10 µM; inhibitor
T1 construct: L2/434/Bu, GFP-expressing

Compared with `CSCC(=O)N1CC[C@H](NC(=O)NC2CCCCC2)[C@H]1C(=O)N1CCC[C@@H]1C(N)=O` [CBK289265], `CC(=O)N1CCC[C@H]2NC(=O)CNC(=O)C3(C/C=C/C[C@H]21)CCN(C(=O)CCC(=O)O)CC3` [CBK292174] is higher in “% of control remaining” value: 93.4541% for the first, 141.871% for the second.

Going from `CN(c1ncccc1CNC(=O)c1c[nH]c(=O)c(Cl)c1)C1CCCCC1` [CBK307267] to `CC(C)(CNC(=O)c1ccc(=O)n(CC(=O)NC2CCCCC2)c1)c1ccc(F)cc1` [CBK285984], the “% of control remaining” value falls from 121.781% to 113.247%.

First: COc1cc(F)cc(OC2CCNCC2)c1NC(=O)c1c(-c2ccccc2)noc1C [CBK050350T]
Second: O=C(Nc1c(F)cc(F)cc1OC1CCNCC1)c1ccnc2ccccc12 [CBK050277T]
The “% of control remaining” value of the first is higher: 112.432% for the first, 109.841% for the second.

First: COC(=O)c1cc(NC(=O)c2cc(-c3ccc(C)o3)nc3ccccc23)cc(C(=O)OC)c1 [CBK265400]
Second: CC(=O)Oc1ccccc1C(=O)Oc1ccc2c(c1)c(C(C)=O)c(C)n2-c1ccccc1 [CBK263175]
The “% of control remaining” value of the first is higher: 134.841% for the first, 120.837% for the second.

Compared with `COc1ccc(NC(=O)N2CCCCC2c2cccnc2)cc1` (stereo not drawn) [CBK293947], `COc1ccc([C@H]2CN(Cc3ccccc3)C[C@@H]2NC(C)=O)cc1` [CBK282930] is lower in “% of control remaining” value: 163.511% for the first, 108.596% for the second.

First: O=S(=O)(c1ccc(C(F)(F)F)cc1Cl)N1CCCN(Cc2ccnc3ccccc23)CC1 [CBK062942]
Second: O=C(CN1CCCC1)N1CCC(c2cccc(Cc3ccc(C(F)(F)F)cc3)n2)CC1 [CBK286215]
The “% of control remaining” value of the first is higher: 132.182% for the first, 107.783% for the second.

Going from `CCCCCCC1N=NC(c2ccc(F)cc2)=CN1O` (stereo not drawn) [CBK019298] to `CCOC(=O)CSc1nc(-c2ccc(C)cc2)cs1` [CBK007039], the “% of control remaining” value rises from 122.073% to 148.427%.

Compared with `CCC(C)NC(=O)CN1CCN(Cn2nnc3ccccc3c2=O)CC1` (stereo not drawn) [CBK305032], `COC(=O)c1ccccc1NC(=O)CSc1nnnn1C` [CBK267441] is higher in “% of control remaining” value: 96.3564% for the first, 116.829% for the second.

Compared with `O=C(c1[nH]nc2c1CCCC2)N1CCn2cc(C(F)(F)F)nc2C1` [CBK283915], `O=C(NCc1n[nH]c(=S)n1-c1cccc(C(F)(F)F)c1)c1cccs1` [CBK067697] is lower in “% of control remaining” value: 111.047% for the first, 99.7641% for the second.

Compared with `CCn1cc(S(=O)(=O)NC2(c3ccc(F)cc3)CC2)c(C)n1` [CBK282837], `Cc1nn(C)cc1S(=O)(=O)N1CCc2cc(Cl)ccc21` [CBK282802] is lower in “% of control remaining” value: 113.413% for the first, 96.4003% for the second.

First: Cc1cccc(CNc2nccnc2-c2cccc(Cl)c2)c1 [CBK037527]
Second: CC(=O)Nc1cccc(-c2nccnc2NCC(c2cccnc2)N(C)C)c1 (stereo not drawn) [CBK037998]
The “% of control remaining” value of the first is lower: 136.293% for the first, 173.345% for the second.

Compared with `O=C(Nc1ccc([C@@H](O)[C@H]2COCC(=O)N2Cc2ccc(F)cc2)cc1)c1cccnc1` [CBK289062], `O=C(CSCC(=O)c1ccc(F)cc1)Nc1ccc2ccccc2c1` [CBK263264] is lower in “% of control remaining” value: 154.213% for the first, 100% for the second.

First: Cc1cc2nc(SCc3nc4ccccc4[nH]3)[nH]c2cc1C [CBK264233]
Second: O=c1[nH]c2ccccc2nc1-c1cc(Br)ccc1NCc1ccccc1 [CBK088071]
The “% of control remaining” value of the first is lower: 127.779% for the first, 151.516% for the second.

Compared with `Cc1cc(COc2nccnc2OC2CCN(CC(=O)Nc3c(C)cccc3C)CC2)no1` [CBK082958T], `CCCCC1CCC(C(=O)Nc2cc(C)c3c(=O)oc4ccccc4c3n2)CC1` (stereo not drawn) [CBK291136] is higher in “% of control remaining” value: 91.2262% for the first, 100.349% for the second.

Compared with `Nc1cc(=O)[nH]c(SCC(=O)N2CCc3ccccc32)n1` [CBK307424], `O=C(Cn1cnc2c(cnn2-c2ccccc2)c1=O)N1CCc2ccccc21` [CBK287529] is higher in “% of control remaining” value: 131.509% for the first, 145.622% for the second.

Going from `COc1cc2c(cc1OC)CN(C(=O)Cn1cc(C)c(=O)[nH]c1=O)CC2` [CBK122745] to `COc1cc2c(cc1CNS(=O)(=O)c1ccc3[nH]c(=O)[nH]c(=O)c3c1)CCC2` [CBK286396], the “% of control remaining” value falls from 110.907% to 110.652%.

Going from `CN1CC(C(=O)N(C)Cc2nc(-c3ccccc3)no2)NC1=O` (stereo not drawn) [CBK306727] to `CCc1nc2ccc(C(=O)N3CCNC(=O)C3)cn2c1N(C)C(=O)COc1ccccc1` [CBK145871], the “% of control remaining” value rises from 81.9251% to 184.485%.

First: Clc1ccc(-c2c[nH]cn2)cc1 [CBK027542]
Second: C(#Cc1ccc(-c2cc[nH]n2)s1)c1ccccc1 [CBK023413]
The “% of control remaining” value of the first is higher: 94.189% for the first, 80.9892% for the second.

Compared with `COc1cc([C@@H]2c3cc4c(cc3[C@H](O)[C@H]2C(=O)Nc2ccccc2)OCO4)cc(OC)c1OC` [CBK200106], `COc1ccc(CC(=O)Nc2nnc(C)s2)cc1OC` [CBK287359] is lower in “% of control remaining” value: 94.229% for the first, 78.2506% for the second.

First: CCOC(=O)CCCNC(=O)N1CCCC(C(=O)N(CC)CC)C1 (stereo not drawn) [CBK156158]
Second: CCN(CC)S(=O)(=O)c1cc(C(=O)NC2CCCCC2)ccc1Br [CBK058354]
The “% of control remaining” value of the first is lower: 129.373% for the first, 155.771% for the second.

Compared with `COC(=O)c1c(NC(=O)CC2SCC(C(=O)OC)NC2=O)sc2c1CCCC2` (stereo not drawn) [CBK263834], `COC(=O)c1c(NC(=S)NCc2ccc(S(N)(=O)=O)cc2)sc2c1CCC2` [CBK266926] is higher in “% of control remaining” value: 96.5849% for the first, 147.954% for the second.

Going from `Cc1ccc(OCc2occc2C(=O)N2CCCn3cncc3C2)cc1` [CBK306618] to `Cc1ccc2oc([C@H]3CCN(Cc4ccc(C(=O)O)cc4)C3)nc2c1` [CBK289386], the “% of control remaining” value rises from 84.3958% to 131.442%.

Compared with `COC(=O)C1=COC(C)C2CN3CCC4(NC(=O)c5c4ccc(OC)c5OC)C3CC12` (stereo not drawn) [CBK003303], `COc1ccc(CN2CCN(C(=O)c3cccs3)CC2)cc1OC` [CBK074410] is higher in “% of control remaining” value: 112.733% for the first, 120.219% for the second.

Compared with `CC(=O)Nc1ccc2c(CSc3nnc(-c4ccco4)n3C)cc(=O)oc2c1` [CBK297534], `C=CCn1c(SCC(=O)Nc2ccccn2)nnc1-c1ccc(Br)cc1` [CBK022413] is lower in “% of control remaining” value: 151.549% for the first, 104.233% for the second.

Compared with `COCCOCC(=O)N1CCC2(C/C=C/C[C@H]3COCC[C@H]3NC(=O)CNC2=O)CC1` [CBK292170], `COc1ccc(C2(CN3CCC(NC(=O)C4CC4)CC3)CC2)cc1` [CBK285358] is higher in “% of control remaining” value: 100.217% for the first, 108.653% for the second.

First: Cc1ccc2c(c1)OC1(CCN(C(=O)c3c(-c4ccccc4)nc4ccccn34)CC1)CC2=O [CBK167871]
Second: C[C@@H](Nc1nc(-c2cccc3cccnc23)cnc1N)c1ccccc1 [CBK063784]
The “% of control remaining” value of the first is lower: 131.634% for the first, 225.165% for the second.

Going from `Cc1ccc(S(=O)(=O)NC2(C(F)(F)F)NC(=O)N(c3ccc(F)c(Cl)c3)C2=O)cc1` (stereo not drawn) [CBK267473] to `Cc1ccc(N(CC(=O)O)S(=O)(=O)c2ccc(C)cc2)cc1` [CBK262409], the “% of control remaining” value rises from 109.881% to 120.231%.

First: Cc1nonc1CNC(=O)C1CC2C=CC1C21CC1 (stereo not drawn) [CBK281678]
Second: Cc1nc(C)c(CNC(=O)NC2CCCN(c3ccn(C)n3)C2=O)s1 (stereo not drawn) [CBK305457]
The “% of control remaining” value of the first is higher: 146.665% for the first, 95.0781% for the second.

Compared with `CN(C)c1ccc(CC(=O)N2CCc3ccccc3C2)cc1` [CBK200340], `Cn1c2c(c3ccccc31)CCOC21CCN(Cc2ccc(OC(F)F)cc2)CC1` [CBK039975] is lower in “% of control remaining” value: 182.727% for the first, 105.617% for the second.

Going from `CN1CCN(c2n[nH]c(N)n2)CC1` [CBK026743] to `CCCCc1ccc(NC(=S)NN2CCN(C)CC2)cc1` [CBK265741], the “% of control remaining” value falls from 158.807% to 148.963%.

Going from `Cc1cc(Br)ccc1S(=O)(=O)Nc1nc(-c2c(F)cccc2Cl)cs1` [CBK200026] to `Oc1cccc(Sc2nc3ccccc3nc2N2CCCC2)c1` [CBK093753], the “% of control remaining” value rises from 72.648% to 139.513%.

First: Nc1nc2c(s1)c(O)nc(=O)n2Cc1ccccc1 [CBK291257]
Second: CCSC(SCC)c1ccnn1-c1ccccc1 [CBK019332]
The “% of control remaining” value of the first is higher: 137.296% for the first, 133.504% for the second.

First: CCn1c2ccccc2c2cc(/C=N/c3cc(S(=O)(=O)c4ccc(O)c(/N=C/c5ccc6c(c5)c5ccccc5n6CC)c4)ccc3O)ccc21 [CBK261229]
Second: CCOC(=O)c1cnc(O/N=C(\N)c2ccc(C(C)(C)C)cc2)nc1C(F)(F)F [CBK022142]
The “% of control remaining” value of the first is lower: 61.8409% for the first, 150.764% for the second.

First: Cc1nc2[nH]c(=O)nc(N)c2nc1C [CBK025658]
Second: Cc1csc(CNCc2c(C)nn(C)c2N(C)C)n1 [CBK304804]
The “% of control remaining” value of the first is higher: 121.274% for the first, 112.107% for the second.

Going from `Cc1ccc(-n2c(C)c(C)c3c(NCCO)cnnc32)cc1` [CBK288162] to `O=C(O)CSC1=CC(=O)N(c2ccc(Br)cc2)C1=O` [CBK287263], the “% of control remaining” value rises from 53.4479% to 127.161%.

First: Cc1cccc(-c2cc(C(=O)O)c(C)o2)c1 [CBK045855]
Second: CN1CCC(N(C)C(=O)NCC2COc3ccccc3O2)C1 (stereo not drawn) [CBK155994]
The “% of control remaining” value of the first is higher: 120.642% for the first, 107.394% for the second.

First: Cn1cccc1C1(O)CCCC2CN(C(=O)c3ccco3)CC21 (stereo not drawn) [CBK284509]
Second: c1ccc(C(CC2CCCCC2)NCc2cccnc2)cc1 (stereo not drawn) [CBK073816]
The “% of control remaining” value of the first is lower: 101.766% for the first, 131.449% for the second.

First: COCCN1CC(CNC(=O)Nc2cc(NC(C)=O)ccc2F)CC1=O (stereo not drawn) [CBK304398]
Second: CCOCC(=O)N(C)C(CO)c1cc(OC)ccc1Br (stereo not drawn) [CBK304722]
The “% of control remaining” value of the first is higher: 140.482% for the first, 116.982% for the second.

Going from `O=C1N=C(N2CCCCCC2)SC1CC(=O)N1CCCc2ccccc21` (stereo not drawn) [CBK063336] to `Cc1nn(C)c(C)c1CN(C)C(=O)CCC1CCCO1` (stereo not drawn) [CBK283078], the “% of control remaining” value rises from 110.025% to 143.9%.
